Among all 210,000 compounds or so, about 5,900 (2.8%) were called active. About 5% were inconclusive and are not listed. Calls come from the whole dose curve; as a rule, active = well fitted activation curve with a large enough effect; inconclusive = small, poorly fitted or top-dose-only effect; inactive = no such curve, though single readings can be large or run the other way. This is a selection; strong and weak results do not stand in their true shares. Where no call is shown, the source filed none.

The results in this text go back to PubChem BioAssay AID1458 (National Center for Advancing Translational Sciences (NCATS), 2008).
Potency is the fitted concentration of half-maximal effect.

The nature of the assay: qHTS Assay for Enhancers of SMN2 Splice Variant Expression. For activity change, positive = activation: % of control where 0% means no effect. Note: nearly all actives have a fitted effect of over 55% in size. As to conditions: HEK293 SMN2-luciferase splicing reporter, luminescence, 30-36 h; activity change, positive = activation: at 46.1 µM (top of the series) unless noted. The method in brief: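 qHTS luciferase splicing reporter: luminescence rises when SMN2 exon 7 is included in transfected HEK293 cells. Compound exposure lasted 30-36 h at 37C, with 4.5 mM final sodium butyrate as control, followed by a ONE-Glo read.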
On the technique in general: In qHTS, concentration-response curves come from the screen itself.
As for `CCOC(=O)C1CCN(C(=S)Nc2ccc(CC)cc2)CC1`, the activity change, positive = activation was -63.7%. Still for that read-out and setting: under `CC(OC(=O)c1cc(=O)[nH]c2ccccc12)c1ccccc1` (configuration not stated) stands 45.5%; under `Nc1[nH]c(N=NC(=O)c2ccc(F)cc2)c2ccccc12`, 109%. The same measure, in the same setting: the value for `Cc1cc(/C=N/NC(N)=O)c(C)n1-c1ccc(F)cc1` was inactive: -28.2%; that for `O=C(NCCCN1CCCC1=O)c1cccc(C(F)(F)F)c1` was 35.4%; that for `O=C(N/N=C/c1cc2c3c(c1O)CCCN3CCC2)c1ccccc1O` was inactive: -102%. Consider `COc1cccc(-c2cn3nc(C)c(C)nc3n2)c1`, for which the Potency was active: 12.6 µM. As for `O=C(O)CCCN1C(=O)NC2NC(=O)NC21` (configuration not stated), the activity change, positive = activation stood at 34.9%. As to `COc1cccc(C(=O)c2c(C)c(CCC#N)n3ccccc23)c1OC`, the activity change, positive = activation turned out to be 47.3%. On to `O=C(COc1ccc(Cl)cc1)N1CCN(C(=O)c2cccc(F)c2)CC1`, for which the activity change, positive = activation is 30.1%. Consider `CCCCc1ccc(NC(=O)C(=O)NCCN2CCN(Cc3ccc([N+](=O)[O-])cc3)CC2)cc1`, for which the “activity change, positive = activation” value is inactive: -77.1%. On the same count and under the same terms, the value for `COc1ccc(Oc2ccc(/C=C/C(=O)c3cccc(OC)c3)cc2[N+](=O)[O-])cc1` was inactive: -33.1%; that for `CCC(=O)N/C(=N/c1nc(C)cc(C)n1)Nc1cccc(OC)c1` was inactive: -19.3%; that for `COc1ccc(CN(C(=O)c2nsc(Cl)c2Cl)C(C(=O)NC2CCCC2)c2ccc(OC)cc2)cc1` (configuration not stated) was -32.8%.

Take `O=c1c2c(nc3nc(Cc4ccccc4)[nH]n13)CCC2`: the activity change, positive = activation was 58.9%. On to `Cc1cnc(NC(=O)CC2CCCC2)s1`, for which the Potency is active: 17.8 µM. For the compound `COCCCNC(=O)c1ccccc1NS(=O)(=O)c1ccc(C)cc1`, the activity change, positive = activation was determined as 37.6%. With `O=[N+]([O-])/C=C\c1ccc(N2CCCC2)c(F)c1`, the Potency is active: 5.62 µM. Consider `COc1ccc(Cl)cc1N(CC(=O)NC(C(C)C)C(C)C)S(C)(=O)=O`, for which the activity change, positive = activation stood at 5.13%. Still for that read-out and setting: the value for `N#CC1(C#N)COC23CCCCC2C1(C#N)C(=N)O3` (configuration not stated) was -88.3%; that for `COC(=O)c1cccc(NC2CC(=O)N(c3ccc(OC)c(OC)c3)C2=O)c1` (configuration not stated) was 56.2%. In the case of `COc1ccc(NC(=S)Nc2ncccc2C)cc1OC`, the Potency is active: 35.5 µM. For `Cc1ccccc1CSc1nnc(C)n1N`, the activity change, positive = activation was 38.8%. The same measure, in the same setting: under `CC(=O)c1c(C)[nH]c(C(=O)NC2=NCCS2)c1C` stands 91%.

`O=C(CSc1nc(-c2ccccc2)cs1)Nc1cccc([N+](=O)[O-])c1`: the activity change, positive = activation was -57.2%.

Take `Cc1cc(C(C)(C)C)cc(S(=O)(=O)NCC(=O)O)c1C`: the activity change, positive = activation is 42.8%. Consider `O=C(CNc1ccccc1OC(F)F)N1CCc2ccccc21`, for which the Potency is active: 14.1 µM. As to `Cc1ccc(-c2nnc(-c3ccc(NC(=O)Cc4cccs4)cc3)o2)cc1`, the activity change, positive = activation was -36%. Same read-out and setting: under `CCCCS(=O)(=O)Nc1ccc2ncn(C)c(=O)c2c1` stands 29.5%. Still for that read-out and setting: under `CC(C)c1nc(SCC(=O)N2CCN(c3ccccc3)CC2)c2c(=O)n(C)c(=O)n(C)c2n1` stands -55.3%. Regarding `Nc1nc2ccccc2n1C(=O)c1ccco1`, the Potency was active: 12.6 µM. As to `CC(=O)c1cccc(NS(=O)(=O)N2CCCCC2)c1`, the activity change, positive = activation is 19.9%.

Take `CCOc1ccccc1-n1c(SCC(N)=O)nnc1-c1ccco1`: the activity change, positive = activation worked out at 41.4%.

For the compound `CNc1ccc(/C=C(\C#N)c2ccccn2)cc1[N+](=O)[O-]`, the Potency is active: 10 µM. In the case of `O=C(CNC(=S)NC(=O)c1cccs1)c1ccccc1`, the activity change, positive = activation is 126%. Still for that read-out and setting: the value for `Cc1ccc(CSCCNC(=O)/C=C/c2ccccc2Cl)cc1` was 27.3%. Same read-out and setting: under `COc1ccc(-c2cc(=O)[nH]c(NCc3ccccc3)n2)cc1` stands 42.7%. On to `COc1ccc2cc(CCNC(=O)c3cccs3)c(=O)[nH]c2c1`, for which the Potency was active: 6.31 µM. Turning to `CCOC(=O)Cc1csc(NC(=O)COc2ccccc2OC)n1`, the activity change, positive = activation came to 31.7%.

Consider `CC#CCOC(=O)c1c(C)nc2sc3c(c2c1N)CCC(O)C3` (configuration not stated), for which the “activity change, positive = activation” value is inactive: -59.3%.

In the case of `Cc1cccc(OCC(=O)NC(=S)Nc2ccc(S(=O)(=O)NC3CCCCC3)cc2)c1`, the activity change, positive = activation is -18.3%. The same measure, in the same setting: the value for `O=C(c1ccco1)N1CCC[C@@]2(CCN(c3cccc(-c4ccccc4)c3)C2)C1` was inactive: -33.8%; that for `CC(C)NC(=O)COc1ccccc1C#N` was inactive: -8.55%. Same read-out and setting: under `Cc1cc(C)c2nc(NNC(=O)c3cc(-c4cccs4)nc4ccccc34)sc2c1` stands -95.6%. On the same count and under the same terms, the value for `COC(=O)CC1C(=O)NCCN1C(=O)CSc1nnc(Nc2ccc(OC)cc2)s1` (configuration not stated) was 42.3%.

In the case of `COc1ccc(-n2nc(C(=O)N3CCN(Cc4ccc5c(c4)OCO5)CC3)c3ccccc3c2=O)cc1`, the activity change, positive = activation was found to be 55.8%. Same read-out and setting: under `Cc1nc2nc(-c3cccnc3)nn2c(C)c1Cl` stands 78.7%; under `N/C(=N\OC(=O)c1cc(Cl)ccc1Cl)c1ccncc1`, 69.8%. The same measure, in the same setting: the value for `COc1ccccc1-c1nccc(NCc2cccc(C)c2)n1` was inactive: -31.8%; that for `CN(C)c1ccc(/C=N/NC(=O)c2ccc(CN3CCOCC3)cc2)cc1Br` was inactive: -38.3%; that for `C=CCn1c(SCC(=O)Nc2cc(C)nn2-c2ccccc2)nnc1C1CCCCC1` was 30.3%.

On to `COCCn1c(COc2ccccc2)nnc1SCC(N)=O`, for which the activity change, positive = activation was 57.5%. Same read-out and setting: under `Cn1c2ccccc2c2cc(C(=O)N3CCOCC3)sc21` stands inactive: 3.7%; under `CCn1c(=O)n(CC)c2cc(S(=O)(=O)N3CCOCC3)ccc21`, 33.6%; under `O=C(Nc1ccc2c(c1)OCO2)Nc1ccccn1`, 180%.

For `NC(=O)CSc1oc(-c2cccs2)nc1S(=O)(=O)c1ccc(Br)cc1`, the activity change, positive = activation stood at 50.5%. Still for that read-out and setting: under `O=C(N/N=C/c1ccc2c(c1)OCO2)c1ccc(Cn2cc([N+](=O)[O-])cn2)o1` stands 8.08%; under `O=S(=O)(NCC1CCCO1)c1ccc(Oc2ccccc2)cc1` (configuration not stated), -39.2%; under `Cc1ccc(NC(=S)NC(=O)c2ccc(-c3ccccc3)cc2)c(C)c1`, inactive: -42.6%. With `COc1ccc(/C=C/C(=O)c2ccc3c4c(cccc24)CC3)cc1OC`, the activity change, positive = activation was -64.8%.

With `C=CCOc1ccc(C(=O)NC2CCCCC2)cc1`, the activity change, positive = activation came out at 69.5%. The same measure, in the same setting: under `Cc1ccc(S(=O)(=O)N2CCCC2C(=O)OCc2ccco2)cc1` (configuration not stated) stands 80.1%; under `C/C(=N\Nc1nc2ccccc2s1)c1cccs1`, -68.3%. Regarding `Cc1ccc(NC(=O)c2scc3c2CCCC3)cc1`, the Potency is active: 1.41 µM. Regarding `Cc1ccc(S(=O)(=O)NC(=O)Nc2ccccc2F)cc1`, the activity change, positive = activation is 57.9%.

With `O=C(O)CCc1nn2c3ccccc3nc2n(Cc2ccccc2)c1=O`, the “activity change, positive = activation” value is inactive: -21.5%. On the same count and under the same terms, under `COc1ccc(OCC(=O)Nc2cccc(OC)c2)cc1` stands 31.1%; under `Cc1cc(NCc2ccco2)nc2cc(O)ccc12`, 45.7%. With `Cc1cc(NC(=O)c2ccccc2)sc1C`, the Potency is active: 11.2 µM.

Take `COc1ccc(-c2csc(NC(=O)COC(=O)c3ccco3)n2)cc1`: the Potency is active: 12.6 µM.

Take `COc1ccc(-c2c[n+]3c(n2-c2ccccc2)CCCCC3)cc1`: the “activity change, positive = activation” value is inactive: -57.9%. Same read-out and setting: the value for `O=C(OCC#CCSc1nnc(-c2ccc(Br)cc2)o1)c1cccs1` was inactive: -44.8%.
